Measured values taken from patent publication US12187705B2, “Heteroaryl-triazole and heteroaryl-tetrazole compounds as pesticides” (Bayer Aktiengesellschaft, priority 2018, dated 2025).
Some of these results come from one statement about several compounds together. At least one compound was matched to its structure with a doubt left. Some compounds share one range, which may span the group rather than tell each member.

Assays:
Type in all cases: in vivo
[1] = tested on: Aedes aegypti strain MONHEIM; assay: Aedes aegypti test (AEDSAE surface treatment & contact assay); conditions: 24 hours after contact
Description: Aedes aegypti Test (AEDSAE Surface Treatment & Contact Assay)
(§1) Solvent: Aceton+2000 ppm rapeseed oil methyl ester (RME)
(§2) In order to produce a sufficient, active ingredient containing solution it is necessary to solve the test-compound in the solvent-mix (Acetone at 2 mg/ml/RME 2000 ppm). This solution is pipetted onto a glazed tile and after evaporation of the Acetone, adult mosquitoes of the species Aedes aegypti strain MONHEIM are placed onto the dried surface. The exposure time is 30 minutes.
(§3) Mortality in percent (%) is determined 24 hours after contact to the treated surface. 100% mortality means that all test-insects are dead, whereas 0% means that not a single insect died.

[2] = tested on: Culex quinquefasciatus strain P00; assay: Culex quinquefasciatus test (CULXFA surface treatment & contact assay); conditions: 24 hours after contact
Description: Culex quinquefasciatus Test (CULXFA Surface Treatment & Contact Assay)
as §1
as §2, with “Culex quinquefasciatus” for “Aedes aegypti”, “P00” for “MONHEIM”
as §3

Nezara viridula = Nezara viridula spray test; conditions: 500 g/ha, barley plants, after 4 days
Description: Nezara viridula—Spray Test
(§4) To produce a suitable preparation of active compound, 1 part by weight of active compound is mixed with the stated amount of solvent, and the concentrate is diluted with water, containing an emulsifier concentration of 1000 ppm, to the desired concentration. Further test concentrations are prepared by dilution with emulsifier containing water.
Barley plants (Hordeum vulgare) infested with larvae of the southern green stink bug (Nezara viridula) are sprayed with a test solution containing the desired concentration of the active ingredient.
After 4 days mortality in % is determined. 100% means all the stink bugs have been killed; 0% means none of the stink bugs have been killed.

Myzus persicae [3] = assay: Myzus persicae spray test; conditions: 500 g/ha, Chinese cabbage leaf disks, after 5 days
Description: Myzus persicae—Spray Test
as §4, with “solvents” for “solvent,”, “and” for “and the concentrate”
Chinese cabbage (Brassica pekinensis) leaf disks infected with all instars of the green peach aphid (Myzus persicae), are sprayed with a preparation of the active ingredient of the desired concentration.
(§5) After 5 days mortality in % is determined. 100% means all aphids have been killed and 0% means none of the aphids have been killed.

Spodoptera frugiperda = Spodoptera frugiperda spray test; conditions: 500 g/ha, maize leaf sections, after 7 days
Description: Spodoptera frugiperda—Spray Test
as §4, with “solvents” for “solvent,”, “and” for “and the concentrate”
Maize (Zea mays) leaf sections are sprayed with a preparation of the active ingredient of the desired concentration. Once dry, the leaf sections are infested with fall armyworm larvae (Spodoptera frugiperda).
After 7 days mortality in % is determined. 100% means all caterpillars have been killed and 0% means none of the caterpillars have been killed.

Myzus persicae [4] = assay: Myzus persicae oral test; conditions: 4 ppm, after 5 days
Description: To produce a suitable preparation of active compound, 1 part by weight of active compound is mixed with the stated amount of solvent, and the concentrate is diluted with water to the desired concentration.
50 μl compound solution is filled in microtiter plates and 150 μl IPL41 insect medium (33%+15% sugar) is added to obtain a total volume of 200 μl per well. Afterwards the plates are sealed with parafilm through which a mixed population of the green peach aphid (Myzus persicae) can suck on the compound preparation.
as §5

Ctenocephalides felis = Ctenocephalides felis oral test; conditions: 100 ppm in cattle blood, after 2 days
Description: Ctenocephalides felis—Oral Test
Solvent: dimethyl sulfoxide
To produce a suitable preparation of active compound, 10 mg of active compound are dissolved in 0.5 ml solvent, and the concentrate is diluted with cattle blood to the desired concentration.
Approximately 20 adult unfed cat fleas (Ctenocephalides felis) are placed in flea chambers. The blood chamber, sealed with parafilm on the bottom, are filled with cattle blood supplied with compound solution and placed on the gauze covered top of the flea chamber, so that the fleas are able to suck the blood. The blood chamber is heated to 37° C. whereas the flea chamber is kept at room temperature.
After 2 days mortality in % is determined. 100% means all the fleas have been killed; 0% means none of the fleas have been killed.

Nilaparvata lugens = Nilaparvata lugens spray test; conditions: 500 g/ha, rice plants, after 4 days
Description: Nilaparvata lugens—Spray Test
as §4, with “solvents” for “solvent,”, “and” for “and the concentrate”
Rice plants (Oryza sativa) are sprayed with a preparation of the active ingredient of the desired concentration and the plants are infested with the brown planthopper (Nilaparvata lugens).
After 4 days mortality in % is determined. 100% means all planthoppers have been killed and 0% means none of the planthoppers have been killed.

[5] = tested on: Anopheles funestus strain FUMOZ-R; assay: Anopheles funestus test (ANPHFU surface treatment & contact assay); conditions: 24 hours after contact
Description: Anopheles funestus Test (ANPHFU Surface Treatment & Contact Assay)
as §1
as §2, with “Anopheles funestus” for “Aedes aegypti”, “FUMOZ-R (Hunt et al., Med Vet Entomol. 2005 September; 19(3):271-5)” for “MONHEIM”
as §3

[6] = surface concentration 4 mg/m^2, 30 minutes exposure
[7] = surface concentration 20 mg/m^2, 30 minutes exposure

Compound: CC(NC(=O)c1cc(Cl)cc(S(C)(=O)=O)c1)c1ncnn1-c1ccc(C#N)cn1 (stereo not drawn) [Example I-035]
- efficacy (mortality) [1, 6]: 80-100%
- efficacy (mortality) [1, 7]: 90-100%
- efficacy (mortality) [2, 6]: 80-100%
- efficacy (mortality) [2, 7]: 80-100%
- mortality (Nezara viridula): 100%
- mortality (Myzus persicae [3]): 90%
- mortality (Spodoptera frugiperda): 100%
- mortality (Myzus persicae [4]): 100%
- mortality (Ctenocephalides felis): 100%

Compound: CC(NC(=O)c1cc(Cl)cc(S(C)(=O)=O)c1)c1ncnn1-c1ncc(F)cn1 (stereo not drawn) [Example I-036]
- efficacy (mortality) [1, 6]: 80-100%
- efficacy (mortality) [1, 7]: 90-100%
- efficacy (mortality) [2, 6]: 80-100%
- efficacy (mortality) [2, 7]: 80-100%
- mortality (Nezara viridula): 100%
- mortality (Myzus persicae [3]): 100%
- mortality (Spodoptera frugiperda): 100%
- mortality (Myzus persicae [4]): 100%
- mortality (Ctenocephalides felis): 100%

Compound: CC(NC(=O)c1cc(Cl)cc(S(C)(=O)=O)c1)c1ncnn1-c1ncccn1 (stereo not drawn) [Example I-037]
- efficacy (mortality) [1, 6]: 80-100%
- efficacy (mortality) [1, 7]: 90-100%
- efficacy (mortality) [2, 6]: 80-100%
- efficacy (mortality) [2, 7]: 80-100%
- mortality (Nezara viridula): 100%
- mortality (Nilaparvata lugens): 100%
- mortality (Myzus persicae [3]): 90%
- mortality (Spodoptera frugiperda): 83%
- mortality (Myzus persicae [4]): 100%
- mortality (Ctenocephalides felis): 100%

Compound: CC(NC(=O)c1cc(F)cc(C2CC2)c1)c1ncnn1-c1ncccn1 (stereo not drawn) [Example I-045]
- efficacy (mortality) [1, 6]: 80-100%
- efficacy (mortality) [1, 7]: 90-100%
- efficacy (mortality) [2, 6]: 80-100%
- efficacy (mortality) [2, 7]: 80-100%
- mortality (Nezara viridula): 100%
- mortality (Myzus persicae [3]): 100%
- efficacy (mortality) [5, 6]: 85-100%
- efficacy (mortality) [5, 7]: 85-100%
- mortality (Spodoptera frugiperda): 100%
- mortality (Ctenocephalides felis): 100%

Compound: CC(NC(=O)c1cc(Cl)cc(C2CC2)c1)c1ncnn1-c1ncccn1 (stereo not drawn) [Example I-050]
- efficacy (mortality) [1, 6]: 80-100%
- efficacy (mortality) [1, 7]: 90-100%
- efficacy (mortality) [2, 6]: 80-100%
- efficacy (mortality) [2, 7]: 80-100%
- mortality (Nezara viridula): 100%
- mortality (Nilaparvata lugens): 100%
- mortality (Myzus persicae [3]): 100%
- mortality (Spodoptera frugiperda): 100%
- mortality (Myzus persicae [4]): 100%
- mortality (Ctenocephalides felis): 100%

Compound: CC(NC(=O)c1cc(Cl)cc(C2CC2)c1)c1ncnn1-c1ccc(C#N)cn1 (stereo not drawn) [Example I-054]
- efficacy (mortality) [1, 6]: 80-100%
- efficacy (mortality) [1, 7]: 90-100%
- mortality (Spodoptera frugiperda): 100%
- mortality (Ctenocephalides felis): 100%

Compound: CC(NC(=O)c1cc(Cl)cc(S(=O)(=O)C(F)(F)F)c1)c1ncnn1-c1ncc(Cl)cn1 (stereo not drawn) [Example I-069]
- efficacy (mortality) [1, 6]: 80-100%
- efficacy (mortality) [1, 7]: 90-100%
- efficacy (mortality) [2, 6]: 80-100%
- efficacy (mortality) [2, 7]: 80-100%
- mortality (Nezara viridula): 100%
- mortality (Spodoptera frugiperda): 100%
- mortality (Myzus persicae [4]): 100%
- mortality (Ctenocephalides felis): 100%

Compound: CC(NC(=O)c1cc(Cl)cc(NC(=O)c2ccccc2)c1)c1ncnn1-c1ncccn1 (stereo not drawn) [Example I-071]
- mortality (Ctenocephalides felis): 100%

Compound: CC(NC(=O)c1cc(Cl)cc(S(=O)(=O)C(F)(F)F)c1)c1ncnn1-c1ccc(C(F)(F)F)cn1 (stereo not drawn) [Example I-072]
- mortality (Spodoptera frugiperda): 100%
- mortality (Ctenocephalides felis): 100%

Compound: CC(NC(=O)c1cc(Cl)cc(S(=O)(=O)C(F)(F)F)c1)c1ncnn1-c1ccc(Cl)cn1 (stereo not drawn) [Example I-073]
- efficacy (mortality) [1, 6]: 80-100%
- efficacy (mortality) [1, 7]: 90-100%
- efficacy (mortality) [2, 6]: 80-100%
- efficacy (mortality) [2, 7]: 80-100%
- mortality (Nezara viridula): 100%
- mortality (Myzus persicae [3]): 90%
- efficacy (mortality) [5, 7]: 85-100%
- mortality (Spodoptera frugiperda): 100%
- mortality (Ctenocephalides felis): 100%

Compound: CC(NC(=O)c1cc(Cl)cc(S(=O)(=O)C(F)(F)F)c1)c1ncnn1-c1cc(C#N)ccn1 (stereo not drawn) [Example I-075]
- efficacy (mortality) [1, 6]: 80-100%
- efficacy (mortality) [1, 7]: 90-100%
- efficacy (mortality) [2, 6]: 80-100%
- efficacy (mortality) [2, 7]: 80-100%
- mortality (Nezara viridula): 100%
- mortality (Myzus persicae [3]): 90%
- mortality (Spodoptera frugiperda): 100%
- mortality (Myzus persicae [4]): 100%
- mortality (Ctenocephalides felis): 100%

Compound: CC(NC(=O)c1cc(Cl)cc(S(=O)(=O)C(F)(F)F)c1)c1ncnn1-c1ncc(Cl)cc1F (stereo not drawn) [Example I-079]
- mortality (Spodoptera frugiperda): 100%

Compound: CC(NC(=O)c1cc(Cl)cc(S(=O)(=O)C(C)(C)C)c1)c1ncnn1-c1ncccn1 (stereo not drawn) [Example I-080]
- mortality (Nezara viridula): 100%
- mortality (Myzus persicae [4]): 100%
- mortality (Ctenocephalides felis): 100%

Compound: CC(NC(=O)c1cc(Cl)cc(S(C)(=O)=O)c1)c1nc(C(F)(F)F)nn1-c1ccc(Cl)cn1 (stereo not drawn) [Example I-090]
- mortality (Nezara viridula): 100%
- mortality (Spodoptera frugiperda): 100%
- mortality (Myzus persicae [4]): 100%
- mortality (Ctenocephalides felis): 100%

Compound: CC(NC(=O)c1cc(Cl)cc(S(=O)(=O)C(F)(F)F)c1)c1ncnn1-c1ncc(C(F)(F)F)cn1 (stereo not drawn) [Example I-097]
- mortality (Nezara viridula): 100%
- mortality (Spodoptera frugiperda): 100%
- mortality (Myzus persicae [4]): 100%

Compound: CC(NC(=O)c1csc(Cl)c1)c1ncnn1-c1ncc(C(F)(F)F)cn1 (stereo not drawn) [Example I-098]
- efficacy (mortality) [1, 7]: 90-100%
- efficacy (mortality) [2, 7]: 80-100%
- mortality (Nezara viridula): 100%
- mortality (Spodoptera frugiperda): 83%

Compound: CC(NC(=O)c1cc(C(F)(F)F)cc(Cl)c1F)c1ncnn1-c1ncccn1 (stereo not drawn) [Example I-104]
- efficacy (mortality) [1, 6]: 80-100%
- efficacy (mortality) [1, 7]: 90-100%
- efficacy (mortality) [2, 6]: 80-100%
- efficacy (mortality) [2, 7]: 80-100%
- mortality (Nezara viridula): 100%
- mortality (Spodoptera frugiperda): 100%

Compound: CC(NC(=O)c1cc2ccc(Cl)cn2n1)c1ncnn1-c1ncccn1 (stereo not drawn) [Example I-106]
- mortality (Spodoptera frugiperda): 100%

Compound: C[C@H](NC(=O)c1cc(Cl)cc(S(C)(=O)=O)c1)c1ncnn1-c1cnc(C#N)cn1 [Example I-117]
- mortality (Nezara viridula): 100%
- mortality (Spodoptera frugiperda): 100%
- mortality (Myzus persicae [4]): 100%

Compound: C[C@H](NC(=O)c1cc(Cl)cc(S(=O)(=O)C(F)(F)F)c1)c1ncnn1-c1ccc(F)cn1 [Example I-118]
- mortality (Nezara viridula): 100%
- mortality (Nilaparvata lugens): 100%
- mortality (Myzus persicae [3]): 90%
- mortality (Spodoptera frugiperda): 100%
- mortality (Myzus persicae [4]): 90%

Compound: C[C@@H](c1ncnn1-c1ccc(C#N)cn1)N(CC1CC1)C(=O)c1cc(F)cc(C2CC2)c1 [Example I-121]
- mortality (Nezara viridula): 100%
- mortality (Myzus persicae [3]): 100%
- mortality (Spodoptera frugiperda): 100%

Compound: C[C@H](NC(=O)c1cc(Br)cc(C(C)(C)C)c1)c1ncnn1-c1ncccn1 [Example I-125]
- mortality (Nezara viridula): 100%
- mortality (Myzus persicae [3]): 100%
- mortality (Spodoptera frugiperda): 100%
